The results in this text go back to patent US20100086997A1 (published 2010).

Sequences of proteins named here, by UniProt entry; tags and fusion partners are left off. Residues count along the entry.
UniProt Q16620, residues 32-430: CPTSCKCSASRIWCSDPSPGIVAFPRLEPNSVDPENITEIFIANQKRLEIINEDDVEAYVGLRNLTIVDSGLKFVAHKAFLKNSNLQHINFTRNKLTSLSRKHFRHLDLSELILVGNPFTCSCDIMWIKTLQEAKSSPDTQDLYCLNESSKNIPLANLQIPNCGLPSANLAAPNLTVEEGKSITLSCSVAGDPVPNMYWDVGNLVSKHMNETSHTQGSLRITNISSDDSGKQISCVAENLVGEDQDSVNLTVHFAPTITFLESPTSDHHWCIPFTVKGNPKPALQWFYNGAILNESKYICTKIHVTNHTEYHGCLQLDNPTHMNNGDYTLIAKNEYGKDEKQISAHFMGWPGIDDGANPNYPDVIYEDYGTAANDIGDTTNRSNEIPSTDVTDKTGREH

These are yes or no findings as the source states them, for the method shown. Some entries that bind do so weakly or less than the wild type.

The target in the experiment is T1, human TrkB-Fc fusion protein (human, UniProt Q16620 32-430).
T1 construct: Bought from R&D Systems or made in-house; also called HuTrkB; Fc-fused recombinant human TrkB; not shown: Fc part
The experiment is described as follows: SPR (Biacore), dimeric ligand over immobilised TrkB-Fc. For orientation: SPR reads the build-up and loss of mass on a sensor chip optically.

B1: NT4/5 (ligand, UniProt P34130 81-210, looked up)
chain: GVSETAPASRRGELAVCDAVSGWVTDRRTAVDLRGREVEVLGEVPAAGGSPLRQYFFETRCKADNAEEGGPGAGGGGCRGVDRRHWVSECKAKQSYVRALTADAQGRVGWRWIRIDTACVCTLLSRTGRA
B1: the binding entry is “binds”.
